Measurements taken from PMC8406179.

Legend:
[1] = target: C-terminally FLAG/HA epitope-tagged MmuPV1 E7 (Mus musculus papillomavirus type 1); assay: affinity purification with mass spectrometry; FLAG/HA-tagged MmuPV1 E7 transiently expressed in HCT116; complexes isolated on HA antibody resin, eluted with HA peptide
[2] = target: N-terminally FLAG/HA epitope-tagged MmuPV1 E7 (Mus musculus papillomavirus type 1); assay: as above

B1: retinoblastoma tumor suppressor protein RB1 (endogenous, HCT116) (protein, UniProt P06400 1-928)
chain: MPPKTPRKTAATAAAAAAEPPAPPPPPPPEEDPEQDSGPEDLPLVRLEFEETEEPDFTALCQKLKIPDHVRERAWLTWEKVSSVDGVLGGYIQKKKELWGICIFIAAVDLDEMSFTFTELQKNIEISVHKFFNLLKEIDTSTKVDNAMSRLLKKYDVLFALFSKLERTCELIYLTQPSSSISTEINSALVLKVSWITFLLAKGEVLQMEDDLVISFQLMLCVLDYFIKLSPPMLLKEPYKTAVIPINGSPRTPRRGQNRSARIAKQLENDTRIIEVLCKEHECNIDEVKNVYFKNFIPFMNSLGLVTSNGLPEVENLSKRYEEIYLKNKDLDARLFLDHDKTLQTDSIDSFETQRTPRKSNLDEEVNVIPPHTPVRTVMNTIQQLMMILNSASDQPSENLISYFNNCTVNPKESILKRVKDIGYIFKEKFAKAVGQGCVEIGSQRYKLGVRLYYRVMESMLKSEEERLSIQNFSKLLNDNIFHMSLLACALEVVMATYSRSTSQNLDSGTDLSFPWILNVLNLKAFDFYKVIESFIKAEGNLTREMIKHLERCEHRIMESLAWLSDSPLFDLIKQSKDREGPTDHLESACPLNLPLQNNHTAADMYLSPVRSPKKKGSTTRVNSTANAETQATSAFQTQKPLKSTSLSLFYKKVYRLAYLRLNTLCERLLSEHPELEHIIWTLFQHTLQNEYELMRDRHLDQIMMCSMYGICKVKNIDLKFKIIVTAYKDLPHAVQETFKRVLIKEEEYDSIIVFYNSVFMQRLKTNILQYASTRPPTLSPIPHIPRSPYKFPSSPLRIPGGNIYISPLKSPYKISEGLPTPTKMTPRSRILVSIGESFGTSEKFQKINQMVCNSDRVLKRSAEGSNPPKPLKKLRFDIEGSDEADGSKHLPGESKFQQKLAEMTSTRTRMQKQKMNDSMDTSNKEEK
[1]
  binding: binds
[2]
  binding: binds

These are yes or no findings as the source states them, for the method shown. Binding seen in cells or lysates may run through a third protein. These calls come from enrichment with a bait or labelling near it, and not all partners need be listed.
